From PMC5316994
No constants are given. Whether binding was seen depends on the method and setting. Binding seen in cells or lysates may run through a third protein. A yes stands for co-enrichment or nearness to the bait. Other partners may have been found.

Chains of the proteins cited; added tags and fusions are not shown. Lines headed by an entry give the natural chain unless they say otherwise; changes in a name come on top.
UniProt Q8I489: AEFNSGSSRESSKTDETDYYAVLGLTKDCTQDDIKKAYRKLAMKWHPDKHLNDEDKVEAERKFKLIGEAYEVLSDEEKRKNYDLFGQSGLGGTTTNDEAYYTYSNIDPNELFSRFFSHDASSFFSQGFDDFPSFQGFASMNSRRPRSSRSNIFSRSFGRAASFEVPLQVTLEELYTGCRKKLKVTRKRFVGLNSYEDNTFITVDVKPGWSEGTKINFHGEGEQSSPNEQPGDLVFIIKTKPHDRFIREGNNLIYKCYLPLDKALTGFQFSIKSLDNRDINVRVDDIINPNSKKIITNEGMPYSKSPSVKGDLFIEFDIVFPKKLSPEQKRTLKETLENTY
UniProt Q8IM77: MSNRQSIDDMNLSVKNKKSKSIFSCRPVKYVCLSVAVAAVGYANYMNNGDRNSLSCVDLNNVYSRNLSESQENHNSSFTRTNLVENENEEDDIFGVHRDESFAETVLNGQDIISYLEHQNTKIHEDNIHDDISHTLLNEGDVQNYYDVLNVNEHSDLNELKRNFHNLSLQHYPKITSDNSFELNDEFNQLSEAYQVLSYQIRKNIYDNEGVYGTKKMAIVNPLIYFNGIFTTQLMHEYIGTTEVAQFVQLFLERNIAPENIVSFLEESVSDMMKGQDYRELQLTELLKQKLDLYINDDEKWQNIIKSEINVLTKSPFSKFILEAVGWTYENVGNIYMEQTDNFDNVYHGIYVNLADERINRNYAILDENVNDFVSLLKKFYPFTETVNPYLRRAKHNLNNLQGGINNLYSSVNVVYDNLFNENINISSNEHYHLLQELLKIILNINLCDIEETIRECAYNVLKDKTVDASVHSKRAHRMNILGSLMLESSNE
UniProt Q8IAK9: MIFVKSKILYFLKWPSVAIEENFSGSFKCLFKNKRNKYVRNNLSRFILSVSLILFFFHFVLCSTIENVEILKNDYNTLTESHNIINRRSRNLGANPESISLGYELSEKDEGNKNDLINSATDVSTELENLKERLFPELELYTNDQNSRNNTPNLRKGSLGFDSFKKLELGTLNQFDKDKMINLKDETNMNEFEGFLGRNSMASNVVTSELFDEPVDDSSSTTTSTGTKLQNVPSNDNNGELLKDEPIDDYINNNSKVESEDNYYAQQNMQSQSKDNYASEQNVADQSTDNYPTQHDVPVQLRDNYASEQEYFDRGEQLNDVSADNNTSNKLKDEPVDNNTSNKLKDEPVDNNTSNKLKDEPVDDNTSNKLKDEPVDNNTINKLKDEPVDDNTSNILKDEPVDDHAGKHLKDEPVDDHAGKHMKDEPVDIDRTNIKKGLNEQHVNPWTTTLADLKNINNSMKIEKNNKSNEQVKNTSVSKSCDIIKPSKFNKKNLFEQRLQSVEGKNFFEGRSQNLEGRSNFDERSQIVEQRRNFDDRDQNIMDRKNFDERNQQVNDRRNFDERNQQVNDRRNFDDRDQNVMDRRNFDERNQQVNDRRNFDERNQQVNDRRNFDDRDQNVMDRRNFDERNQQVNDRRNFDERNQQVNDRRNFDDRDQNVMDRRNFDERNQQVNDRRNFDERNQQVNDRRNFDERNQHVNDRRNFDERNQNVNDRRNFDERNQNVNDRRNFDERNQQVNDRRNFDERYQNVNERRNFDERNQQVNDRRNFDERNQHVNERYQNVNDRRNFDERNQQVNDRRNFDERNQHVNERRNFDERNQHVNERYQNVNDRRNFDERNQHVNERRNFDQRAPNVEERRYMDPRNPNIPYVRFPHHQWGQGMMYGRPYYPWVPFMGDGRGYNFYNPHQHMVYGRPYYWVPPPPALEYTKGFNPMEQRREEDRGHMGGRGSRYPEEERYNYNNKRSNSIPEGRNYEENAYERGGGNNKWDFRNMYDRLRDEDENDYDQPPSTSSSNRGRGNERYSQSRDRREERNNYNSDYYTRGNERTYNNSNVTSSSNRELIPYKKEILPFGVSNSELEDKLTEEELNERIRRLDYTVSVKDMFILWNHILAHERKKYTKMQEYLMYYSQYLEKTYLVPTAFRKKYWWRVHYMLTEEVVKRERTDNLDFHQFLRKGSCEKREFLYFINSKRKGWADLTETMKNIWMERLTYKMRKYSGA
UniProt Q8IM15: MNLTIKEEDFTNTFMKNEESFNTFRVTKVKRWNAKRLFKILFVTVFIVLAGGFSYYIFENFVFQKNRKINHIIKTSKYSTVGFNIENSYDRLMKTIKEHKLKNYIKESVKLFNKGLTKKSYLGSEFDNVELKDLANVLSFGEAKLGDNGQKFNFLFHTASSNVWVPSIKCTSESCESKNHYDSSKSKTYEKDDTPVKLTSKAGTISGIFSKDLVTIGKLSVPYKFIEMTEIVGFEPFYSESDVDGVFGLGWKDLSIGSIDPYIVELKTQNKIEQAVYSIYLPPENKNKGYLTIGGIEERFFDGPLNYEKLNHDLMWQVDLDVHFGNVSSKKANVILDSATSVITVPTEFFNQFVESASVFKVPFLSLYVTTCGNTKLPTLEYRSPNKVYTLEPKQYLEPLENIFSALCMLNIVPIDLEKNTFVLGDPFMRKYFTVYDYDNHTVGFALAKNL
UniProt Q8IM16: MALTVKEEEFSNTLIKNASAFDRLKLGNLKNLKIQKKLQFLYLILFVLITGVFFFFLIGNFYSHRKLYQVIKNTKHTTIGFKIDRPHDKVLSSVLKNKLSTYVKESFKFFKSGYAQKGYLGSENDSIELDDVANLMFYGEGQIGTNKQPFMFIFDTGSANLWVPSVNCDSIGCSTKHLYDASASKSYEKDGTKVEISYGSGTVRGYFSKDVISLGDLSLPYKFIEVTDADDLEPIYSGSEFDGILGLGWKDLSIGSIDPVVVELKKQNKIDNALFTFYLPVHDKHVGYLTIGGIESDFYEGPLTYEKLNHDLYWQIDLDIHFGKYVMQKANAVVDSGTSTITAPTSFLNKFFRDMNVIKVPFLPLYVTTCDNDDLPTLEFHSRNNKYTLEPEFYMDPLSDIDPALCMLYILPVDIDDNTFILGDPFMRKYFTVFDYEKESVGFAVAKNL

What was measured:
[1] = biological target: PFE55^GFP (Plasmodium falciparum 3D7) (UniProt Q8I489); experiment: affinity purification with mass spectrometry
[2] = biological target: PfHsp70x (Plasmodium falciparum (endogenous in 3D7-derived parasites)); experiment: affinity purification with mass spectrometry

Molecule	binding [1]	binding [2]
DnaJ protein, putative (PF3D7_1401100) (from UniProt Q8IM77)	binds	
PfHsp101 (from UniProt Q8IIJ8)	binds	
PfPHIST_0801 (from UniProt Q8IAK9)	binds	
plasmepsin III (HAP) (from UniProt Q8IM15) (enzyme)	binds	
plasmepsin IV (PM4) (from UniProt Q8IM16) (enzyme)	binds	
high molecular weight rhoptry protein 3 (RhopH3) (protein, UniProt Q8I395 25-897) KDVFAGFVTKKLKTLLDCNFALYYNFKGNGPDAGSFLDFVDEPEQFYWFVEHFLSVKFRVPKHLKDKNIHNFTPCLNRSWVSEFLKEYEEPFVNPVMKFLDKEQRLFFTYNFGDVEPQGKYTYFPVKEFHKYCILPPLIKTNIKDGESGEFLKYQLNKEEYKVFLSSVGSQMTAIKNLYSTVEDEQRKQLLKVIIENESTNDISVQCPTYNIKLHYTKECANSNNILKCIDEFLRKTCEKKTESKHPSADLCEHLQFLFESLKNPYLDNFKKFMTNSDFTLIKPQSVWNVPIFDIYKPKNYLDSVQNLDTECFKKLNSKNLIFLSFHDDIPNNPYYNVELQEIVKLSTYTYSIFDKLYNFFFVFKKSGAPISPVSVKELSHNITDFSFKEDNSEIQCQNVRKSLDLEVDVETMKGIAAEKLCKIIEKFILTKDDASKPEKSDIHRGFRILCILISTHVEAYNIVRQLLNMESMISLTRYTSLYIHKFFKSVTLLKGNFLYKNNKAIRYSRACSKASLHVPSVLYRRNIYIPETFLSLYLGLSNLVSSNPSSPFFEYAIIEFLVTYYNKGSEKFVLYFISIISVLYINEYYYEQLSCFYPKEFELIKSRMIHPNIVDRILKGIDNLMKSTRYDKMRTMYLDFESSDIFSREKVFTALYNFDSFIKTNEQLKKKNLEEISEIPVQLETSNDGIGYRKQDVLYETDKPQTMDEASYEETVDEDAHHVNEKQHSAHFLDAIAEKDILEEKTKDQDLEIELYKYMGPLKEQSKSTSAASTSDEISGSEGPSTESTSTGNQGEDKTTDNTYKEMEELEEAEGTSNLKKGLEFYKSSLKLDQLDKEKPKKKKSKRKKKRDSSSDRILLEESKTFTSENEL		binds
high molecular weight rhoptry protein 2 (RhopH2) (protein, UniProt C0H571 20-1378) LELNEKVSIKYGAEQGVGSADSNTKLCSDILKYLYMDEYLSEGDKATFEKKCHNVIGNIRNTFSNKNTIKEGNEFLMSILHMKSLYGNNNNNNAGSESDVTLKSLYLSLKGSQNTEGESEVPSDDEINKTIMNFVKFNKYLLDNSNDIKKVHDFLVLTSQSNENLLPNKEKLFEQIVDQIKYFDEYFFASGGKIKVKKGYLKYNFLDIYKQPVCSAYLHLCSRYYESVSIYIRLKKVFNGIPAFLDKNCRKVKGEEFKKLMDMELKHNHIVERFDKYIISDDLYYVNMKVFDLKNVDKIQVSKIDDINNLNIYEHKETMHLSAKNLSRYIDIKKELNDEKAYKQLMSAIRKYVTTLTKADSDITYFVKQLDDEEIERFLIDLNFFLYNGFLRITEDKHLINADDVSPSYINLYRSNNIVALYILKTQYEENKLSEYRAHKFYRRKRVSNITNDMIKKDFTQTNALTNLPNLDNKKTTEYYLKEYENFVENFQPDLHDIMKLQLFFTMAFKDCNVNQNFTETSKKLWFDLLYAYDKFGWFYIHPNEVINSINKTDFVRHVLVSRNFLLKNNDQLTFLETQVAKIVEIINLSLEVDKSPDSLDFSIPMNFFNHKNGYHVMNDDKLKLLTSYEYIDSIANNYFFLSEYKNDVFRTGNNFKLYFNLPNIYSLAYQLFNELAININVITNVPLKKYLKYNASYAYFTLMNMIGKNHDIYSKGSRFVYASYILGLVFFIESHIDIARLKPKDFFFMKQSLPIIDHVYHKDLKTLKKNCTLLTDFMKINKNSQNYSLTHTEEMIKILGLLTVTLWAKEGKKSVYYDDDVSLYRKLMVSCVFNGGETIQEKLANNIEKSCDISQYGIKSKNLKDMIDINLSIHKWNPAEIEKLAYSFVLSCKMQKLMYKPMNVEKLPLEDYYKLSLAPDMVKTYHCYKLGKQAAELLESIILKKKFVRFRVTDAIDVYDFFYIKKVLSSRIKKEYNEFLQDKRAFEKKELETILNNSPFSEEQTMKLINSYECHWFTSYENFRILWMHASSNLGTGTYLKNFFSELWQNIRFLFKSKLKIRDMEYFSGDISQMNLLDYYSPMVHSESHCQEKMQVLFITLRDSKEENRSEIAQKVKSAYYQCKLDYYKNHHSDFIHRIHPNDFLNNKVYVLKQPYYLMSNVPLNNPKKVSRLFVTEGTLEYLLLDKINIPECFGPCTKLHFNKVVIKESKQRIYDMTINNALVPEIQPYNRRKYMTIYINEAYIKNIVSDALTSEEIKRHDIQKGNIKICMGKSTYLTEPILTEEHFNLTHKPVYDFSSVKHNLKVFHMKNEHLVSEDPNDDCFINYPLATINLDISDPYKEISEDLIKNLYILKSS		binds
